PMC3930493
Results are given in words; binding and its absence hold for the method and conditions named. Binding seen in cells or lysates may run through a third protein. Binding can be weak; no strength is given. Sequences can lack the tags named with a protein.

Chains of the proteins cited; added tags and fusions are not shown. Lines headed by an entry give the natural chain unless they say otherwise; changes in a name come on top.
UniProt A1ZBJ1: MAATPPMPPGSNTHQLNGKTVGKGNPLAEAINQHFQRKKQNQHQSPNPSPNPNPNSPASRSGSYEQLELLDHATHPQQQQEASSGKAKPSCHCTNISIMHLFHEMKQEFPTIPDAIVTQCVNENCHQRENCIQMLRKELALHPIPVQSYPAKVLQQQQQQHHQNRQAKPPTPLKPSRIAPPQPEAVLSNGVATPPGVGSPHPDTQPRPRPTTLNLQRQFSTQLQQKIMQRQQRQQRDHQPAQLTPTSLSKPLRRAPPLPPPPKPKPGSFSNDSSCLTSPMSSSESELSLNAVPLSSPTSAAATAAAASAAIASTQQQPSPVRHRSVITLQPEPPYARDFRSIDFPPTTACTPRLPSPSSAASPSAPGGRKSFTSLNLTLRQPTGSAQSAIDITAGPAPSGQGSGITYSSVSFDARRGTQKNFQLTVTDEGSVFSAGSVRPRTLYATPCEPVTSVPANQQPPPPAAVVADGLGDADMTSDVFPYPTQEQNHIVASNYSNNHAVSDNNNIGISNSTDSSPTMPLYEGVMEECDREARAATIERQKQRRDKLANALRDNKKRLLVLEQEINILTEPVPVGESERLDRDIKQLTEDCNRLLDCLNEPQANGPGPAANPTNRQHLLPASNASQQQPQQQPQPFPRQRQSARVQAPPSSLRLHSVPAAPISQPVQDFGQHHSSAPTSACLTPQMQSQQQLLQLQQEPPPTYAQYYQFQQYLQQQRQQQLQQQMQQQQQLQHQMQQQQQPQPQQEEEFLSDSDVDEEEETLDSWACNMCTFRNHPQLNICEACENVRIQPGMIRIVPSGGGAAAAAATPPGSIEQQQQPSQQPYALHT

Biological target: Drosophila TAB2-V5 (TAK1-associated Binding Protein 2) (D. melanogaster) (UniProt A1ZBJ1)
Experiment: co-IP; S2 cells co-transfected, lysed 48 hrs post-transfection in RIPA buffer; anti-V5 agarose 2 hours at 4°C; washes with 900 mM NaCl then 150 mM NaCl CoIP wash buffer; 10% SDS PAGE, immunoblot with anti-HA

| binding | Binder |
| --- | --- |
| binds | Drosophila TAK1-HA (TGF-beta Activating Kinase 1) (protein, UniProt Q9V3Q6 1-678) MATASLDALQAAYVDFSEITLREKVGHGSYGVVCKAVWRDKLVAVKEFFASAEQKDIEKEVKQLSRVKHPNIIALHGISSYQQATYLIMEFAEGGSLHNFLHGKVKPAYSLAHAMSWARQCAEGLAYLHAMTPKPLIHRDVKPLNLLLTNKGRNLKICDFGTVADKSTMMTNNRGSAAWMAPEVFEGSKYTEKCDIFSWAIVLWEVLSRKQPFKGIDNAYTIQWKIYKGERPPLLTTCPKRIEDLMTACWKTVPEDRPSMQYIVGVMHEIVKDYTGADKALEYTFVNQQIVTKESDGTVAAQPDSLSSQEGELSPSSTQLTPTTAANANVNAIAISKTTTSSMTENTSSTSSDITPTNSGQLDNNPLFYMVTNRWDAIPEEESNESRNDSFNLTSSAEATQRLETIRNGMILMACKPMEQLTLDVEANGFDLSPSESSSSSTNAKSDGRERLTVTDTKPVMMTTDLSNNNGGIHAHSNGLLSHANGWQARDEELQEQEHEQEIVNSLDVDVDPDEDENDGTEQSLAEILDPELQPEPPIPNDAESQLIYRDHRHMAKEYLSVDTNLYYAQDFKDKLIVQMDRTEREQKQELLRKMKDKEGLQSLYNNLQQQYASRQLAAGHHPQPHPHPHPNQLQHPHSHPPMHFLQDEGCGLLPGSVCGGSESVEEGWVVIPPHHNA |
| binds weakly | Drosophila Trabid-HA (enzyme, UniProt Q9VH90 1-778) MCDTKDDAQKWKCETCTYENYPSSLKCTMCQASKPLLNEDIFRLSPAQESCTVAEEAAAVEVAVMSPTPSSTCYSLQPQSQARQSNVADSEKWPCKVCTYLNWPRSLRCVQCCTKRGGEAIERGKKDMDNEADGDRAGEALQALRISGSEENLANKPVQLIGATASHRLSLSRGIDDATHLNNLANASHNQSQSQHRQPVLQQQMQLQLQPQQQRESSSSAAVPPQQQKQCYVSKWACNSCTYENWPRSIKCSMCGKTREREISGSQNDLHASSSLNSQEENQQQLQQPNVDTVSVNNSFNKKHIYQLGSSETINNCDTLQERQERRQRQIRRQVDWQWLNACLGVVENNYSAVEAYLSCGGNPARSLTSTEIAALNRNSAFDVGHTLIHLAIRFHREEMLPMLLDQISGSGPGIKRVPSYVAPDLAADIRRHFANTLRLRKSGLPCHYVQKHATFALPAEIEELPIPIQEQLYDELLDRDAQKQLETPPPALNWSLEITARLSSRMFVLWNRSAGDCLLDSAMQATWGVFDRDNILRRALADTLHQCGHVFFTRWKEYEMLQASMLHFTLEDSQFEEDWSTLLSLAGQPGSSLEQLHIFALAHILRRPIIVYGVKYVKSFRGEDIGYARFEGVYLPLFWDQNFCTKSPIALGYTRGHFSALVPMEPFTRIDGRRDDVEDVTYLPLMDCELKLLPIHFLTQSEVGNEESMMRQWLDVCVTDGGLLVAQQKLSKRPLLVAQMLEEWLNHYRRIAQVITAPFIRRPQITHYSSDGDSDEE |
